Measured values reported in the supplement of paper PMC12819154, “High-throughput peptide-centric local stability assay extends protein–ligand identification to membrane proteins, tissues and bacteria” (Nature Structural & Molecular Biology, 2025).
The list shows a part of the results. Small differences around the control level are noise.

Sequences of proteins named here, by UniProt entry; tags and fusion partners are left off. A change or cut given only in a name is not applied to a line headed by its entry.
UniProt Q96HP0: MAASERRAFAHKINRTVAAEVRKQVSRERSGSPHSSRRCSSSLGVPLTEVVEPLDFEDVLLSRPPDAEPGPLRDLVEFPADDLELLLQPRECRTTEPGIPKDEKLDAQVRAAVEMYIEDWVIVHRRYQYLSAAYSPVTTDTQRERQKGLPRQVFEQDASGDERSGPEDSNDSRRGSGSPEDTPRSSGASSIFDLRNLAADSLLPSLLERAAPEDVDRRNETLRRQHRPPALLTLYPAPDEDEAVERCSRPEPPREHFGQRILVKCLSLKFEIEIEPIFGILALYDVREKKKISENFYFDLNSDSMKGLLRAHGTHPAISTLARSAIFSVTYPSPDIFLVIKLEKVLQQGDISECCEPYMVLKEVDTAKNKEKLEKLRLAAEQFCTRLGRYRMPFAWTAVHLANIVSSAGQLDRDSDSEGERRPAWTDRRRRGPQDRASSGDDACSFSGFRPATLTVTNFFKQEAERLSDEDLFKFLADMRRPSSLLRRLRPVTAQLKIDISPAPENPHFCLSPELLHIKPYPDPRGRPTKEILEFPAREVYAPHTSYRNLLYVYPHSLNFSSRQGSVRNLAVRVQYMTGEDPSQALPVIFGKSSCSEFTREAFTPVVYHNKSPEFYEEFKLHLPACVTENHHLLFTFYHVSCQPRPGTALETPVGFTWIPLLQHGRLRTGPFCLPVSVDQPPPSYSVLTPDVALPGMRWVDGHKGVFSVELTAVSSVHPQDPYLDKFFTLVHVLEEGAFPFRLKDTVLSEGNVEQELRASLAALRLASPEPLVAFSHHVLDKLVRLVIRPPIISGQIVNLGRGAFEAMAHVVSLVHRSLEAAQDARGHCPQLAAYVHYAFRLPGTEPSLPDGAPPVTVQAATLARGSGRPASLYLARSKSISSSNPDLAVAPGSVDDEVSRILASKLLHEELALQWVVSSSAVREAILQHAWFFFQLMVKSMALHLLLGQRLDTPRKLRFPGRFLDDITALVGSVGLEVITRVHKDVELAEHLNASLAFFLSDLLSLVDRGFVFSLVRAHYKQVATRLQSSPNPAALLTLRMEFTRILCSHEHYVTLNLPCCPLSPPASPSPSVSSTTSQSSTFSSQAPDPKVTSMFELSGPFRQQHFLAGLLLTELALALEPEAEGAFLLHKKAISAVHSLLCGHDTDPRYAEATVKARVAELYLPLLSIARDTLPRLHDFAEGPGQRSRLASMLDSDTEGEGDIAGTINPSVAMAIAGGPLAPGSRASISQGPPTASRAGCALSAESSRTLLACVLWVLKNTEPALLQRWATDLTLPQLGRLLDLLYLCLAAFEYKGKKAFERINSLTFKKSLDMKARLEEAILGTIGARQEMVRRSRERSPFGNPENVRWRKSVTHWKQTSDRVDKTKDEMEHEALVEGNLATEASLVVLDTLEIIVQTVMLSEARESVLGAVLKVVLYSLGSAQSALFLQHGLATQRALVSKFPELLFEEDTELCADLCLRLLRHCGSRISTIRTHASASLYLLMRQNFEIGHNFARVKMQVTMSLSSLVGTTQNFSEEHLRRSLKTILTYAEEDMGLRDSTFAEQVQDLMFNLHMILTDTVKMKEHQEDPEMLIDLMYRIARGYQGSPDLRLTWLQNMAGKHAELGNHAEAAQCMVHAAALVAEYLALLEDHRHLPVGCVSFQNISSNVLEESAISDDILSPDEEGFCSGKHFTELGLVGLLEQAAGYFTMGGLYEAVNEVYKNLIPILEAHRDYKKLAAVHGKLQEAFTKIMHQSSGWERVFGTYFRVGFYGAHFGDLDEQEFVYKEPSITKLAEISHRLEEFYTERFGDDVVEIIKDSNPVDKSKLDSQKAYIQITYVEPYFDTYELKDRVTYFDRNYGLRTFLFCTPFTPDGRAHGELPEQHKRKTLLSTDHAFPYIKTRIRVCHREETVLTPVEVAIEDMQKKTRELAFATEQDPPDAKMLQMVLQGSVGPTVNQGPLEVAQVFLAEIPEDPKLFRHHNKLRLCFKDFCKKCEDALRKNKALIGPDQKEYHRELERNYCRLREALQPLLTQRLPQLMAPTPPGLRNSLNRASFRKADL
UniProt Q96N46: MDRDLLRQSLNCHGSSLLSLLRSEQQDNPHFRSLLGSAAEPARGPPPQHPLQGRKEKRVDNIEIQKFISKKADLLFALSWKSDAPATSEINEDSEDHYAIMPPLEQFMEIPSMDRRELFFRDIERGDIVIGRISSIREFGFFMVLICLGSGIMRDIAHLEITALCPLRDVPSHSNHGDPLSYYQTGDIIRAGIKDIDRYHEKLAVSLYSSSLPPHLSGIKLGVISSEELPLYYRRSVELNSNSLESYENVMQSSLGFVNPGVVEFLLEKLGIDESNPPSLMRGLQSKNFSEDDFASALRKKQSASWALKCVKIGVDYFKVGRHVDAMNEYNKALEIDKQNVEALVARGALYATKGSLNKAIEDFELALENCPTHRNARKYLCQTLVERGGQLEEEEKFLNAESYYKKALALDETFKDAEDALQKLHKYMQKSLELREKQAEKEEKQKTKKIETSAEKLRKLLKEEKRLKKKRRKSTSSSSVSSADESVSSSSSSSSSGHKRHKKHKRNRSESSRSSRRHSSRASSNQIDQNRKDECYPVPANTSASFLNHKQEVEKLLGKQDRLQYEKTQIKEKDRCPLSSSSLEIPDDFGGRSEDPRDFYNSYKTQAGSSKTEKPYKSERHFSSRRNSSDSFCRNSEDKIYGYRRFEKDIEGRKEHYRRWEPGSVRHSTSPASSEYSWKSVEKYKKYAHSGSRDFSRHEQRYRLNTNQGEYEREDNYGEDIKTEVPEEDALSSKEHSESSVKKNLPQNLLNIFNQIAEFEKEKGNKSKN
UniProt Q96ME1: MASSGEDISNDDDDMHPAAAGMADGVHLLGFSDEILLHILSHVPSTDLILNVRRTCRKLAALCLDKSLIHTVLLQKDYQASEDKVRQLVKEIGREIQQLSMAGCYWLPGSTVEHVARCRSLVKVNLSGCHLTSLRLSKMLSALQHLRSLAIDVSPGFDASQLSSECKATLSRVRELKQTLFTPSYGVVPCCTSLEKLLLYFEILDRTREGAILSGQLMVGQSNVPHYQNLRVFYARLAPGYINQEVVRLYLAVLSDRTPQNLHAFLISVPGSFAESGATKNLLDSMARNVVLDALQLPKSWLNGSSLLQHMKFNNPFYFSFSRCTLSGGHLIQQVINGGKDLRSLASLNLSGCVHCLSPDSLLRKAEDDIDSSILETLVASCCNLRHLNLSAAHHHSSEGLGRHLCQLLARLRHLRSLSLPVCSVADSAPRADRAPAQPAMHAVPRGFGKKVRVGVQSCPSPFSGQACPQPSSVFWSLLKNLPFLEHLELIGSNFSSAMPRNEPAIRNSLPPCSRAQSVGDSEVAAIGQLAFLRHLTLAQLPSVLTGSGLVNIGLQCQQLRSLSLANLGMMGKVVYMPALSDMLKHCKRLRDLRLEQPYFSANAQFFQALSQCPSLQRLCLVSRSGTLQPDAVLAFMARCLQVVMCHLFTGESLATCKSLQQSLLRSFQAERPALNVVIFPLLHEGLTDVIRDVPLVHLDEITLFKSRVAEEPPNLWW
UniProt Q96PU5: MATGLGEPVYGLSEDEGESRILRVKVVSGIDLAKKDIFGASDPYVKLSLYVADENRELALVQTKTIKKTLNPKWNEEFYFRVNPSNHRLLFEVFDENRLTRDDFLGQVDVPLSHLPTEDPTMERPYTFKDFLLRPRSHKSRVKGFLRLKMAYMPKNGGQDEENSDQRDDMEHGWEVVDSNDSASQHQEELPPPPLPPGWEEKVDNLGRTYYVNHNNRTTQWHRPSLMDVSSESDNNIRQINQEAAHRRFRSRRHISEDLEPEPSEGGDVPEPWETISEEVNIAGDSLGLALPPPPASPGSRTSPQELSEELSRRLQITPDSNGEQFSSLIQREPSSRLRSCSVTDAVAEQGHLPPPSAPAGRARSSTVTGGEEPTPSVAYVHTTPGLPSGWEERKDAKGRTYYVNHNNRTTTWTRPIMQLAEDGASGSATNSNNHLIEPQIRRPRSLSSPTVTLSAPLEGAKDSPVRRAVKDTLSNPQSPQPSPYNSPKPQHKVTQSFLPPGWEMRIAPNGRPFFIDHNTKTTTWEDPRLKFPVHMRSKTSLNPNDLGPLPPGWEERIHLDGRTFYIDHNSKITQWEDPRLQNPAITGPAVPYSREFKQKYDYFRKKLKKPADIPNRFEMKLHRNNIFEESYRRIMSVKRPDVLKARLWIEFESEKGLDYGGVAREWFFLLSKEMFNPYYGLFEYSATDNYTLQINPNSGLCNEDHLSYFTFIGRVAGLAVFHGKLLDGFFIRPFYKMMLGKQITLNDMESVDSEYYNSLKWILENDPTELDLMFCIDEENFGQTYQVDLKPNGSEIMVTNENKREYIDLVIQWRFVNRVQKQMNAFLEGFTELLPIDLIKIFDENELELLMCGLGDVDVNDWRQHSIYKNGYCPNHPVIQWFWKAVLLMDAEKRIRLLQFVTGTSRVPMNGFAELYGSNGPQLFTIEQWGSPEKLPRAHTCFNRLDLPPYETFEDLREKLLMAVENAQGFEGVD
UniProt Q96G03: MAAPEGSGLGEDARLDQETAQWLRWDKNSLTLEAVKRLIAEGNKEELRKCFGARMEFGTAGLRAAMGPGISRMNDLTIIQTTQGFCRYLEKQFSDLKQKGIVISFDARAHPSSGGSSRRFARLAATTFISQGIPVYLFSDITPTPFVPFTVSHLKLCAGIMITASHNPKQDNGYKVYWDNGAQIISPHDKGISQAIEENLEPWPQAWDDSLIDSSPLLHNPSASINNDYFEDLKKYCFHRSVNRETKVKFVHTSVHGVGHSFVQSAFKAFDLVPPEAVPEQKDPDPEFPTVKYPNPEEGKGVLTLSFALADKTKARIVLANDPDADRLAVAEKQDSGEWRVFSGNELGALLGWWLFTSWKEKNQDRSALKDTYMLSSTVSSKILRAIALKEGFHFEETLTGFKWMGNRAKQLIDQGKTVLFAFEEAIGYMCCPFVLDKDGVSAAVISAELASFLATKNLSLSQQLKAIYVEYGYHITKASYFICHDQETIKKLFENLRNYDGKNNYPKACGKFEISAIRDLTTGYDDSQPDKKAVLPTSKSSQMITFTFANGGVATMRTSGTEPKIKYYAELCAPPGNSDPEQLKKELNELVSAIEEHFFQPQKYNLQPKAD
UniProt Q96KQ4: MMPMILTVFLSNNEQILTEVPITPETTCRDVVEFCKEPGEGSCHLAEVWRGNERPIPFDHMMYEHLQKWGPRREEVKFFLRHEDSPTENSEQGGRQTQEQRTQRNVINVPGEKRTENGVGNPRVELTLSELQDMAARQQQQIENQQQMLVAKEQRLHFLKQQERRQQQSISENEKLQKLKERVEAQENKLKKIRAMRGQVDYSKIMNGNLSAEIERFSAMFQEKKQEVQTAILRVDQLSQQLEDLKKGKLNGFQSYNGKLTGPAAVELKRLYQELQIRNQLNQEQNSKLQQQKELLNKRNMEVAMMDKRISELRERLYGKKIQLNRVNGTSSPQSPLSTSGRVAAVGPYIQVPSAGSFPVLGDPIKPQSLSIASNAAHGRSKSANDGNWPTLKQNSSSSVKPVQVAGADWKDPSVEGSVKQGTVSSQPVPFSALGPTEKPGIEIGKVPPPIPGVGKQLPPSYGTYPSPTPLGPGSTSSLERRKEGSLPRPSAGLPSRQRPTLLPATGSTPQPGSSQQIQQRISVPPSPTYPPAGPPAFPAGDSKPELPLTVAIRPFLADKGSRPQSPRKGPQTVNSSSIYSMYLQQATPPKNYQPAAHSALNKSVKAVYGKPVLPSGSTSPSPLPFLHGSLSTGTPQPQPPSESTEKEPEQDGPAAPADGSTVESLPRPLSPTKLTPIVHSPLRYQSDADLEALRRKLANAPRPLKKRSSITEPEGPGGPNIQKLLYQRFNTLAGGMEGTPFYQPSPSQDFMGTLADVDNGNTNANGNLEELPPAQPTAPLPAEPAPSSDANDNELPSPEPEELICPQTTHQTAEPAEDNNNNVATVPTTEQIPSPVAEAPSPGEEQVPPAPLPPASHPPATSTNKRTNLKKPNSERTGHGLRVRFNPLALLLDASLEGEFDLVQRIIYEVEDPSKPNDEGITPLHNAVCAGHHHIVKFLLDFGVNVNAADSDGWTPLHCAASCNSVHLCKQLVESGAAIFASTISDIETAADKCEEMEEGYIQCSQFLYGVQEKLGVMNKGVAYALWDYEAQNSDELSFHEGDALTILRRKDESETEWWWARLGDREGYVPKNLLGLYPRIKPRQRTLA
UniProt Q96GV9: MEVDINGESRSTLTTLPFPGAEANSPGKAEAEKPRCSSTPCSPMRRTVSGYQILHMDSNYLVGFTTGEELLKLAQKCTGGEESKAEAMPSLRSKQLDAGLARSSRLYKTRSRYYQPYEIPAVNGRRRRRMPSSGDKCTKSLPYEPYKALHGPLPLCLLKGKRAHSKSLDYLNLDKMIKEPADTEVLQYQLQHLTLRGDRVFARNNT

Compound: Cc1nc(Nc2ncc(C(=O)Nc3c(C)cccc3Cl)s2)cc(N2CCN(CCO)CC2)n1 [dasatinib]
Experiment: log2 fold change of tryptic peptide abundance, ligand vs vehicle (limited proteolysis) (log2 ratio); higher = more trypsin-susceptible (destabilized)
Settings: ligand concentration: 5 uM; sample: K562 cleared lysate

| Target | log2 fold change |
| --- | --- |
| UIMC1 (peptide sequence: KAIAESLNSCRPSDASATR, peptide start residue: 112) (UniProt Q96RL1) | 0.393 |
| CNOT6L (peptide sequence: ELLLNNNLLR, peptide start residue: 106) (UniProt Q96LI5) | 0.409 |
| DOCK6 (peptide sequence: SPFGNPENVR, peptide start residue: 1343) (UniProt Q96HP0) | 0.2 |
| TTC14 (peptide sequence: HVDAMNEYNK, peptide start residue: 323) (UniProt Q96N46) | -0.504 |
| FBXL18 (peptide sequence: VNLSGCHLTSLR, peptide start residue: 124) (UniProt Q96ME1) | 0.126 |
| NEDD4L (peptide sequence: NNIFEESYR, peptide start residue: 625) (UniProt Q96PU5) | 0.326 |
| PGM2 (peptide sequence: IVLANDPDADRLAVAEK, peptide start residue: 317) (UniProt Q96G03) | -0.159 |
| UniProt Q96KQ4 (peptide sequence: NLLGLYPR, peptide start residue: 1112) | -0.0551 |
| C5orf30 (peptide sequence: MIKEPADTEVLQYQLQHLTLR, peptide start residue: 176) (UniProt Q96GV9) | -0.484 |

Pulled one by one from the entries so far (two):

| Target | log2 fold change |
| --- | --- |
| C5orf30 (peptide sequence: MIKEPADTEVLQYQLQHLTLR, peptide start residue: 176) (UniProt Q96GV9) | -0.484 |
| UIMC1 (peptide sequence: KAIAESLNSCRPSDASATR, peptide start residue: 112) (UniProt Q96RL1) | 0.393 |
